Laboratory results as given in paper PMC4589731.
These are yes or no findings as the source states them, for the method shown. Binding seen in cells or lysates may run through a third protein. Some results given as binding are weak or reduced against the parent protein; the word gives no strength. Where a sequence is shown, tags or fusion partners need not be part of it.

Chains of the proteins cited; added tags and fusions are not shown.
UniProt Q14999: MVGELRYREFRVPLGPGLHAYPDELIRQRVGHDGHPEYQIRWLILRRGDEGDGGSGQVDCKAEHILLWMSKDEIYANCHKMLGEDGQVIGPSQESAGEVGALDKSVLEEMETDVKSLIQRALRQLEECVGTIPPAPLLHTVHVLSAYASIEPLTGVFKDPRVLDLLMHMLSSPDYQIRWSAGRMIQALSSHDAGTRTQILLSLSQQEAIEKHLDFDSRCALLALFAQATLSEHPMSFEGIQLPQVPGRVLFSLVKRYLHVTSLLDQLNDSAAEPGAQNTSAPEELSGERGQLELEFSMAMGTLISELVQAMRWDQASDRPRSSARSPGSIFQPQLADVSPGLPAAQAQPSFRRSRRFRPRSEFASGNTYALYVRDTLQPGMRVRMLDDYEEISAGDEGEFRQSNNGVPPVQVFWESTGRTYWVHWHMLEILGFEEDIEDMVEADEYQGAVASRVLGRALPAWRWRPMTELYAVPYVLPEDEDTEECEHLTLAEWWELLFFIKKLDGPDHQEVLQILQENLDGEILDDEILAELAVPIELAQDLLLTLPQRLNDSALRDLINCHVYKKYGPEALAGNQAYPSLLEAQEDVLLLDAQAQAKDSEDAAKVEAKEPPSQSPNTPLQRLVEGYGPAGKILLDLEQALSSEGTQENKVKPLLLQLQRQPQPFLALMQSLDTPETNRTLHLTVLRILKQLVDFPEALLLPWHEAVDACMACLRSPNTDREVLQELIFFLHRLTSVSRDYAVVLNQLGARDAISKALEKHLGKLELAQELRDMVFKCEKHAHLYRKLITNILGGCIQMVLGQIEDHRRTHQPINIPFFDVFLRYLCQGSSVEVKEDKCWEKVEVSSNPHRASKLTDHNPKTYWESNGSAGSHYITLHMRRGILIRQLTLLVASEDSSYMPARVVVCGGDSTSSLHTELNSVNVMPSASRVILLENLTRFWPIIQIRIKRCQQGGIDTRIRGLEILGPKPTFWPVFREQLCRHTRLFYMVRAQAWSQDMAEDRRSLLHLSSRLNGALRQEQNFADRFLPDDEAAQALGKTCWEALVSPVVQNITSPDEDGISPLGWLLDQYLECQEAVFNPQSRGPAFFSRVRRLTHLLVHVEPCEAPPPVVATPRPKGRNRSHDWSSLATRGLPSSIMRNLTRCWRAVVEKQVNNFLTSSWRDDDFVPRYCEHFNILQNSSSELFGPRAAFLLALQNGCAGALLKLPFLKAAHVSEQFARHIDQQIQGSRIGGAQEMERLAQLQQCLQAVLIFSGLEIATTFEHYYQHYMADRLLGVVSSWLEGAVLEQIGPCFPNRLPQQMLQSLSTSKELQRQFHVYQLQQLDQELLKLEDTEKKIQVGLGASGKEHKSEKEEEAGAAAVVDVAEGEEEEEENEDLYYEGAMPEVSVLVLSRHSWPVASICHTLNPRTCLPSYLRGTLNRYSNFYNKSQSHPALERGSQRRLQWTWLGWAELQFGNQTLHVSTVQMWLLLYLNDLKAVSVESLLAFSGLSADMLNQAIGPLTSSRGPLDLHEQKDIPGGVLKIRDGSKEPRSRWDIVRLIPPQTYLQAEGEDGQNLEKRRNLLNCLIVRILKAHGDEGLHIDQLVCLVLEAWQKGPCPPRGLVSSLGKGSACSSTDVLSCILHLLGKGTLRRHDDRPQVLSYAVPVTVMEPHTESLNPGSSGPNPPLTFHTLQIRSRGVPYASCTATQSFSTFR
UniProt O75147: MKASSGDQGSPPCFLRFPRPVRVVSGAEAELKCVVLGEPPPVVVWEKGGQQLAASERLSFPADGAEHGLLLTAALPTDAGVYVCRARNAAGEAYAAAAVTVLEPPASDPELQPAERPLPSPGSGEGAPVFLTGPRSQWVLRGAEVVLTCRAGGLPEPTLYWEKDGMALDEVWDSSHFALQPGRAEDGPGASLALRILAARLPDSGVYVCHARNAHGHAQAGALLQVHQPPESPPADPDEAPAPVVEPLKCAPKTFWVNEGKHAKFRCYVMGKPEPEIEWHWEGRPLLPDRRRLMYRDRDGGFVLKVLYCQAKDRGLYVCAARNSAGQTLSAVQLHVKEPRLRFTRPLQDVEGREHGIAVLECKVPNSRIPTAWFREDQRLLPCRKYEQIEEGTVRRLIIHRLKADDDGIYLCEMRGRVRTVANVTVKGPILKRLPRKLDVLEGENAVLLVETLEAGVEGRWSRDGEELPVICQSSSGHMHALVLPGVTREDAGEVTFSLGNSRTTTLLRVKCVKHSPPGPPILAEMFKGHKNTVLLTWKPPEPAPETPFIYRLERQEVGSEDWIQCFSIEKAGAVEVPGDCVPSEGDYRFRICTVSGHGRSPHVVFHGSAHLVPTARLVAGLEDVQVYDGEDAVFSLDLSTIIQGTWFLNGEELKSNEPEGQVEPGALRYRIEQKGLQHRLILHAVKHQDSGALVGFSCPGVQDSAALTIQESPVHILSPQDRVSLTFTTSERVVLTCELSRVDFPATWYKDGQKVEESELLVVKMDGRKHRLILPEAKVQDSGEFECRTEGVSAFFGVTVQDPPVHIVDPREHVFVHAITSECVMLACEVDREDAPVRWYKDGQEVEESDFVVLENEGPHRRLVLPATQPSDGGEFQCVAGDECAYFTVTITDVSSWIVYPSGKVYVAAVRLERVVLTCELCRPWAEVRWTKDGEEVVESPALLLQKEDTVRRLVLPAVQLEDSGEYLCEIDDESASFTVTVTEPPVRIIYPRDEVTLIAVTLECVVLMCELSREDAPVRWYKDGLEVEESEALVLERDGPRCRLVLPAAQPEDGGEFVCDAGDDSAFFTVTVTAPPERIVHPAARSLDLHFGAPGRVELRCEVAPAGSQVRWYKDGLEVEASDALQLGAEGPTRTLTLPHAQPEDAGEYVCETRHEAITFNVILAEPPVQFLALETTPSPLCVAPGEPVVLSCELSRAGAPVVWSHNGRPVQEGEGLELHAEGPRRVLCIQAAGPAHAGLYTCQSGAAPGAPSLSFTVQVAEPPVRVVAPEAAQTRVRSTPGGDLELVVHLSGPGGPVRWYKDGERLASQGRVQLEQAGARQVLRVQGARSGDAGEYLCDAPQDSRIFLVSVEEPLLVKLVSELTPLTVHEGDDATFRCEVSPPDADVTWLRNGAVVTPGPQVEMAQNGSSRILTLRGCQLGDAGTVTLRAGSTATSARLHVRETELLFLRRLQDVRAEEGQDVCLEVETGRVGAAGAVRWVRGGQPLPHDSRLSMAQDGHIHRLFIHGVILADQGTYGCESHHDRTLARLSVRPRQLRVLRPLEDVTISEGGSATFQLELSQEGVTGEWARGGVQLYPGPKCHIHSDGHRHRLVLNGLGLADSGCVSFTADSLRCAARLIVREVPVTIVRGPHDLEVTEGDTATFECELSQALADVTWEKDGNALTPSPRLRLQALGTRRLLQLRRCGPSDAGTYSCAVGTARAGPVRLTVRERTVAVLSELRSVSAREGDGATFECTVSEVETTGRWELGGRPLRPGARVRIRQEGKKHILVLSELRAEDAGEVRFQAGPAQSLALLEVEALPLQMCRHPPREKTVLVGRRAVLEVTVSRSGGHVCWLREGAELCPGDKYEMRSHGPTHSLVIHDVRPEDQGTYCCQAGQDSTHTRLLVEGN

Target: T1, Flag-tagged CCDC8 (human) (UniProt Q9H0W5)
T1 sequence: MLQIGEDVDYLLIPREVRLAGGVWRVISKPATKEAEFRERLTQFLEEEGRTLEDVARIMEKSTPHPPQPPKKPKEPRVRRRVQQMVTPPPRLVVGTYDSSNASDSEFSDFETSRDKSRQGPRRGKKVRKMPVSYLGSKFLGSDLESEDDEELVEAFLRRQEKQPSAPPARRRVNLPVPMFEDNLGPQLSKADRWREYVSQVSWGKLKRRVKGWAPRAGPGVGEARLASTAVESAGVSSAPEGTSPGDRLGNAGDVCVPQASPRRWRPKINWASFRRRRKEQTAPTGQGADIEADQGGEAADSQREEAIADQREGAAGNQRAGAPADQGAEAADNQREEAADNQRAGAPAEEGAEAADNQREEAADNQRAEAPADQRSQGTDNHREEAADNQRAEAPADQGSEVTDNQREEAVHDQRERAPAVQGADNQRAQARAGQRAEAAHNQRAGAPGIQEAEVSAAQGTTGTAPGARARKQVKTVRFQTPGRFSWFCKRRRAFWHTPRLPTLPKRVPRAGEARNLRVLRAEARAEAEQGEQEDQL
Experiment: co-IP; lysates of transfected cells (BC100 buffer: 20 mM Tris-HCl pH 7.5, 100 mM NaCl, 1% Triton X-100, 1% CHAPS) incubated with anti-Flag M2 agarose beads at 4 °C overnight, five washes, eluted with 3xFlag peptide, Western blot; proteasome inhibitor PS-341 added in Fig. 4c

Row | Substance | binding
1 | Flag-tagged E3 ligase Cul7 (from UniProt Q14999 1-1698) | binds
2 | V5-tagged obscurin-like 1 (Obsl1) (from UniProt O75147 1-1896) | binds
